# Source: the supplement of paper PMC12067093, “Discovery and optimisation of a covalent ligand for TRIM25 and its application to targeted protein ubiquitination” (Chemical Science, 2025)
# Protein sequences, listed by entry. Tags and fused reporters are not part of them. Lines headed by an entry give the natural chain unless they say otherwise; changes in a name come on top.
# UniProt P21964: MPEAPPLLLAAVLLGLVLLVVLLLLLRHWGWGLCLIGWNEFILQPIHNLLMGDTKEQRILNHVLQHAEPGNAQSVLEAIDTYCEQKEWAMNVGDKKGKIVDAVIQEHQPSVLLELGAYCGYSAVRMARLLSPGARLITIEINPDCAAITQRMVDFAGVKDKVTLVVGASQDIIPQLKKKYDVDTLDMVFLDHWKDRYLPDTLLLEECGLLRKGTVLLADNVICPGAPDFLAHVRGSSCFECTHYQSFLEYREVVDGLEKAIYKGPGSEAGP
# UniProt Q96BR5: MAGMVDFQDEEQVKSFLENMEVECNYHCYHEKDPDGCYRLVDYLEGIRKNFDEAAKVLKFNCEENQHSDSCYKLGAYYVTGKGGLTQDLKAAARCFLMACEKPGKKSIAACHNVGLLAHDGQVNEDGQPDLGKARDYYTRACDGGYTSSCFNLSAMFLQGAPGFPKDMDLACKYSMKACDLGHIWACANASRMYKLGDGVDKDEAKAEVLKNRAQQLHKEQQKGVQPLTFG
# UniProt Q86WW8: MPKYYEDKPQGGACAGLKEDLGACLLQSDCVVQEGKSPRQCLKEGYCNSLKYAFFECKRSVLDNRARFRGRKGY
# UniProt P53618: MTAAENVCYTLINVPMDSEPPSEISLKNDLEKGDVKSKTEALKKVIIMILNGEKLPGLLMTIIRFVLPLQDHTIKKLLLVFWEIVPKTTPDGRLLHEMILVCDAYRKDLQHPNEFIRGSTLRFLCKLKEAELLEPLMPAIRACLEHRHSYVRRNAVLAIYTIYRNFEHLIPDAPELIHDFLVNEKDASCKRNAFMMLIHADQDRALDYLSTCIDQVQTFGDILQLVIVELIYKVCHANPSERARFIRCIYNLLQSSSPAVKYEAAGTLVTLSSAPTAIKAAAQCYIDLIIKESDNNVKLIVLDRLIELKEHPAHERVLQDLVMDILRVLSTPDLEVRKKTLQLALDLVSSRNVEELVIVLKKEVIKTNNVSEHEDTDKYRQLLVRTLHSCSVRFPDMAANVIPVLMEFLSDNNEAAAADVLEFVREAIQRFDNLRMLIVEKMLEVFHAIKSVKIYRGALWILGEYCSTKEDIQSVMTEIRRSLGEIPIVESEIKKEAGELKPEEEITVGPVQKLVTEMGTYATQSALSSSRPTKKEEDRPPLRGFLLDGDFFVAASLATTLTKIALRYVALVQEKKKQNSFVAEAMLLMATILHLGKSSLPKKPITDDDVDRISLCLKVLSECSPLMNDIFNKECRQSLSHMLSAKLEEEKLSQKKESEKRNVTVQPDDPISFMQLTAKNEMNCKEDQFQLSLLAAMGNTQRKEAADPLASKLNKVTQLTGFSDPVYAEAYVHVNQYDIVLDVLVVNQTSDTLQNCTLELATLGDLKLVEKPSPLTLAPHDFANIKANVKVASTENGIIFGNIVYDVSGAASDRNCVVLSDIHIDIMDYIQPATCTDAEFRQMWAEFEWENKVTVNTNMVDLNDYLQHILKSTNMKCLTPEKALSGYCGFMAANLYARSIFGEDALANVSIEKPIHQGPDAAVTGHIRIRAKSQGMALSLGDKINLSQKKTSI
# UniProt Q9BT09: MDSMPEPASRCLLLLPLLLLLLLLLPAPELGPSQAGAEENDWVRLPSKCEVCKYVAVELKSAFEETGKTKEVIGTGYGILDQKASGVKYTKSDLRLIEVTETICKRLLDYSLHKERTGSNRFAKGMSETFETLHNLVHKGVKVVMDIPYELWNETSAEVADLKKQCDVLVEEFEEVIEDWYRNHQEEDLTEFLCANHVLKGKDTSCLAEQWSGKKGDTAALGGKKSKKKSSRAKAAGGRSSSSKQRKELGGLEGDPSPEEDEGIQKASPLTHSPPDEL
# UniProt P39059: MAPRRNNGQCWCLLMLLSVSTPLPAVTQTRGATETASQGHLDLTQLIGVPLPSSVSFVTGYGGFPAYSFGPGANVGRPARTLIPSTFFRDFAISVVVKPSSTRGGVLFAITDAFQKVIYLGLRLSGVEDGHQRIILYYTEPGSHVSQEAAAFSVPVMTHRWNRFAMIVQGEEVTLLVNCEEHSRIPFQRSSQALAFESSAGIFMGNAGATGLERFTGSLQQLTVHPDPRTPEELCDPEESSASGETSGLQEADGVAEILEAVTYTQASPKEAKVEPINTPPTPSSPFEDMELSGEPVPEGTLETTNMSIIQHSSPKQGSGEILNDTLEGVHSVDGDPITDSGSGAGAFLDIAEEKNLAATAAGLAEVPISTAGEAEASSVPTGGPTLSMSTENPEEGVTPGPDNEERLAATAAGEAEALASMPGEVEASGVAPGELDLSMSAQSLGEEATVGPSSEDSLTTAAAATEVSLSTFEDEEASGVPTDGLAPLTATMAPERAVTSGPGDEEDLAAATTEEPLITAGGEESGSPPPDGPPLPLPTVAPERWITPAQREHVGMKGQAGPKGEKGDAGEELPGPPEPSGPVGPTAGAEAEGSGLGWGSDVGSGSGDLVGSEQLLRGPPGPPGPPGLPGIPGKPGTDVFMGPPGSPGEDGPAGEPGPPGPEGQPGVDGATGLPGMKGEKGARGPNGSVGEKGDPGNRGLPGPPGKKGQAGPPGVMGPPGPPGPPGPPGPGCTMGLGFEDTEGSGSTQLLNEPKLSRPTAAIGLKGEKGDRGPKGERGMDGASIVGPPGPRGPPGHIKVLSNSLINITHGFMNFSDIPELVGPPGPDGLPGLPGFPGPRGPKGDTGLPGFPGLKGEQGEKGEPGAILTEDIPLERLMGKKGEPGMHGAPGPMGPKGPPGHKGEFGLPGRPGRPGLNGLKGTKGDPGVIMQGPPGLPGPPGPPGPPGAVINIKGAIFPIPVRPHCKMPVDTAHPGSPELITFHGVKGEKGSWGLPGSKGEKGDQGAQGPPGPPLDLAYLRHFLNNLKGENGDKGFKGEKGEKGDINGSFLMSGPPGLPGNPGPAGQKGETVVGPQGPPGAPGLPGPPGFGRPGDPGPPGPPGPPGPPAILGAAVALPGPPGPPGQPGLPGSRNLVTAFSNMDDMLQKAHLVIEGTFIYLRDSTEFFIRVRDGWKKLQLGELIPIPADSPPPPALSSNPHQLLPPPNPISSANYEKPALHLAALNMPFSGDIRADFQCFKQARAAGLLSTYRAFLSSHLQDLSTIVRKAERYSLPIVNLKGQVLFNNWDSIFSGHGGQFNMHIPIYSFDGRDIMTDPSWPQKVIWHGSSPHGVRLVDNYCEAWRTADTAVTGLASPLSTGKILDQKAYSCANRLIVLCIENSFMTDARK
# UniProt Q7Z7A1: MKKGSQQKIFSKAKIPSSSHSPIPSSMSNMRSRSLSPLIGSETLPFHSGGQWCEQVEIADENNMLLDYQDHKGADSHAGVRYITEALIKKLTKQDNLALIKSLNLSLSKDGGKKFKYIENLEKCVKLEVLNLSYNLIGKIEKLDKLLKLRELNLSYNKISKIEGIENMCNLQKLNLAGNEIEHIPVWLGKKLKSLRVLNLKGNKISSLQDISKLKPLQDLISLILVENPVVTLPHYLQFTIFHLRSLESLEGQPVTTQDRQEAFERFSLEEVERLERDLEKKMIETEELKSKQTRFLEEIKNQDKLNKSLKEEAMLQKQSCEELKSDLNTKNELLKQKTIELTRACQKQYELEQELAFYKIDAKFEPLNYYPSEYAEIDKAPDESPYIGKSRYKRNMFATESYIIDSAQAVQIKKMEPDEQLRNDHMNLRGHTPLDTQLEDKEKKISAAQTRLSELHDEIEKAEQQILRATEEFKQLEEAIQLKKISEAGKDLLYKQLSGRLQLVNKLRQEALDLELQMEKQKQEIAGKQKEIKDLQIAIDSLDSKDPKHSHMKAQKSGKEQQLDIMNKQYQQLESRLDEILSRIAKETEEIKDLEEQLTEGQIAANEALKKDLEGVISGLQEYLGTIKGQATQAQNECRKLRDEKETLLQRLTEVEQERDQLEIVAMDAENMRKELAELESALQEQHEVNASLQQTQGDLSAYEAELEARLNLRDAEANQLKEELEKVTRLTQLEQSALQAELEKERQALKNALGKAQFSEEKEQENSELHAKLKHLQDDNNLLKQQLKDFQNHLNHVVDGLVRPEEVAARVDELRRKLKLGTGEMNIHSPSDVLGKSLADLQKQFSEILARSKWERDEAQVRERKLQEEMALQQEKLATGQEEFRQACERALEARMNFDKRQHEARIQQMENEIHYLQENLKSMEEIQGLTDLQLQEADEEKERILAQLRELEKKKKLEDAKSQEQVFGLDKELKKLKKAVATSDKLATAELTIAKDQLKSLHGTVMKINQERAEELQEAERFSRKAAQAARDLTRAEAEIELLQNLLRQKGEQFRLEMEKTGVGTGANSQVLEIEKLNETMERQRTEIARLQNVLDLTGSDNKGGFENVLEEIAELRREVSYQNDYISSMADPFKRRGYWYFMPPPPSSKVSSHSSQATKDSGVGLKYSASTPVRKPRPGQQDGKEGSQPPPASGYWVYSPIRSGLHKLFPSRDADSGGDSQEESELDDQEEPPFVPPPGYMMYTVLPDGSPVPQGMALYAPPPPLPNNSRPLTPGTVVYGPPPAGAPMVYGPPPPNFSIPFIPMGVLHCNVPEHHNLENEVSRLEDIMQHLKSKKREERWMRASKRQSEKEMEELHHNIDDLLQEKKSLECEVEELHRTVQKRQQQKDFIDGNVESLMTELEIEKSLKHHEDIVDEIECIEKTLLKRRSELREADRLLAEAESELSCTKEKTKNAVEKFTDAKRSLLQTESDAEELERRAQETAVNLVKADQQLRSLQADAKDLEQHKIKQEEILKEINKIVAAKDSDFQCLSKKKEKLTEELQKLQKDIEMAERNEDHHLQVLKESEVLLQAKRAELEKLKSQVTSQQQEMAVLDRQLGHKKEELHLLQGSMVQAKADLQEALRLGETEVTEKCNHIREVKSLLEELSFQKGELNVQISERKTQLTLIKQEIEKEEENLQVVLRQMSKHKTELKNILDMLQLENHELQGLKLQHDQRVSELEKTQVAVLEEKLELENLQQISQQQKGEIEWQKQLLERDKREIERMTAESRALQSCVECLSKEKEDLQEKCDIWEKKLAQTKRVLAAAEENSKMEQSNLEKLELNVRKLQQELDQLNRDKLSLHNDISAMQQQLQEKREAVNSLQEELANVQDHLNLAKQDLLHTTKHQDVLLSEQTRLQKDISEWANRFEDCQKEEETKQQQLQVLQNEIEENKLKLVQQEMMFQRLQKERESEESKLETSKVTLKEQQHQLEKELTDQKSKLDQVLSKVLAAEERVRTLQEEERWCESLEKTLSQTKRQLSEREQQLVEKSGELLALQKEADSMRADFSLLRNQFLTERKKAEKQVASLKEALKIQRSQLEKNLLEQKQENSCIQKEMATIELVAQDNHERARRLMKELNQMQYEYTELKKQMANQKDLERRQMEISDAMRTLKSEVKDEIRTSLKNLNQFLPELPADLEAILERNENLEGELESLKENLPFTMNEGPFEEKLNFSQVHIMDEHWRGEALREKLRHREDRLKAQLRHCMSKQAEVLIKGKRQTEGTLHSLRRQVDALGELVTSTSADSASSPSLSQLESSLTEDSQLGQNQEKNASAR
# UniProt Q9UBF2: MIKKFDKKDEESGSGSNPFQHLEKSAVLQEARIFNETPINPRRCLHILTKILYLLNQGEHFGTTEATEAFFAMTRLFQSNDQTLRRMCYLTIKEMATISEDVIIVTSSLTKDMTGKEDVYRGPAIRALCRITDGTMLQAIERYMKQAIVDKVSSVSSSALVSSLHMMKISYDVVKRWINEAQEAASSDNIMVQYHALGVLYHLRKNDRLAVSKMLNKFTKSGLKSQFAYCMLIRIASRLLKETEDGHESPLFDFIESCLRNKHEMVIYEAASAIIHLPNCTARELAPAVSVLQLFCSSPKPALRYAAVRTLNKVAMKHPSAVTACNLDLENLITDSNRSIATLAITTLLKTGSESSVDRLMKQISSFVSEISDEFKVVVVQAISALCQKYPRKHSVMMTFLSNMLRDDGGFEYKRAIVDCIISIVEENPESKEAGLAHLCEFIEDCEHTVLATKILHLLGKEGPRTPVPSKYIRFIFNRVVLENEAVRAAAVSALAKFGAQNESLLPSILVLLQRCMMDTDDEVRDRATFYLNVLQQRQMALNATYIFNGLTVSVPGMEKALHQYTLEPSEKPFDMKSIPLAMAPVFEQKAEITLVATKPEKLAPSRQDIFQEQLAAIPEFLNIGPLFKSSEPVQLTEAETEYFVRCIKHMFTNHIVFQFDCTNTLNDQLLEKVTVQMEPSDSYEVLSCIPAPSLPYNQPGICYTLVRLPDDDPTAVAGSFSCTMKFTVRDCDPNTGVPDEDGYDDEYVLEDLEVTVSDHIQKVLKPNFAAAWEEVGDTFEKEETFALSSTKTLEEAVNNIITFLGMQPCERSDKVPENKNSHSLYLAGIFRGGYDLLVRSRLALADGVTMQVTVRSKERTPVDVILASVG
# UniProt P62633: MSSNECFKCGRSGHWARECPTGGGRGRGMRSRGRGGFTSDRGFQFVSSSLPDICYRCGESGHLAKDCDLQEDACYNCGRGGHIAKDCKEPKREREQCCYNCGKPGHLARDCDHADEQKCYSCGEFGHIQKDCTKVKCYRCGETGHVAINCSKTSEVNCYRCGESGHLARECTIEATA
# The other results are listed elsewhere or left out.
# Compound: Cc1cc(ccc1-c1ccccc1)C(=O)N1CCCN(CC1)C(=O)CCl [compound 10]
# Assay: probe-labelled cysteine peptide fold change vs DMSO (competition) (log2 fold change); higher = less target engagement (more negative = stronger competition)
# Details: THP-1, incubation time: 4 h
# 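Also: competitive profiling in live THP-1 cells: cysteine peptides tagged with an iodoacetamide desthiobiotin (IA-DTB) probe, intensity after compound treatment relative to DMSO-treated cells.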
Target,probe-labelled cysteine peptide fold change (10 µM),probe-labelled cysteine peptide fold change (50 µM)
COG3_Q96JB2_349_ELLLGPSIACTVAELTSQNNR (UniProt Q96JB2),-0.155,-0.545
COPG1_Q9Y678_735_DCDPTTGETDDEGYEDEYVLEDLEVTVADHIQK (UniProt Q9Y678),0.022,-0.107
COPG1_Q9Y678_726_EDPTAVACTFSCMMK (UniProt Q9Y678),0.167,0.11
COPS6_Q7L5N1_266_EAYALCHCLPVLSTDK (UniProt Q7L5N1),0.35,-0.223
COMT_P21964_145_LITIEINPDCAAITQR (UniProt P21964),0.142,0.0298
COA7_Q96BR5_62_FNCEENQHSDSCYK (UniProt Q96BR5),-0.126,0.0964
COPS4_Q9BT78_378_QIQSLCFQVNNLLEK (UniProt Q9BT78),0.074,0.0593
COA5_Q86WW8_24_EDLGACLLQSDCVVQEGK (UniProt Q86WW8),-0.374,0.21
COPB1_P53618_390_TLHSCSVR (UniProt P53618),0.334,0.262
CNOT7_Q9UIV1_148_KHEEEGIETQYFAELLMTSGVVLCEGVK (UniProt Q9UIV1),0.17,-0.325
CNPY3_Q9BT09_206_DTSCLAEQWSGKK (UniProt Q9BT09),-0.173,0.0136
COMT_P21964_238+241_GSSCFECTHYQSFLEYR (UniProt P21964),-0.00343,-0.424
COL15A1_P39059_965_GAIFPIPVRPHCK (UniProt P39059),-0.0948,0.0369
CNOT1_A5YKK6_50_CLFSHVDFSGDGK (UniProt A5YKK6),0.349,-0.157
COPB1_P53618_466_GALWILGEYCSTK (UniProt P53618),-0.321,0.156
CNOT10_Q9H9A5_327_ALQENDNVCAQLSAGSTDPGK (UniProt Q9H9A5),0.225,0.476
CNTRL_Q7Z7A1_1375_SLECEVEELHR (UniProt Q7Z7A1),-0.0324,0.125
COPB1_P53618_8_TAAENVCYTLINVPMDSEPPSEISLK (UniProt P53618),-0.258,0.0608
COPG2_Q9UBF2_420_AIVDCIISIVEENPESK (UniProt Q9UBF2),0.346,0.317

# Not a retest: an excerpt of the list.
Target,probe-labelled cysteine peptide fold change (10 µM),probe-labelled cysteine peptide fold change (50 µM)
COL15A1_P39059_965_GAIFPIPVRPHCK (UniProt P39059),-0.0948,0.0369
CNOT1_A5YKK6_50_CLFSHVDFSGDGK (UniProt A5YKK6),0.349,-0.157
COPB1_P53618_466_GALWILGEYCSTK (UniProt P53618),-0.321,0.156
CNOT10_Q9H9A5_327_ALQENDNVCAQLSAGSTDPGK (UniProt Q9H9A5),0.225,0.476
CNTRL_Q7Z7A1_1375_SLECEVEELHR (UniProt Q7Z7A1),-0.0324,0.125
COPB1_P53618_8_TAAENVCYTLINVPMDSEPPSEISLK (UniProt P53618),-0.258,0.0608
COPG2_Q9UBF2_420_AIVDCIISIVEENPESK (UniProt Q9UBF2),0.346,0.317

# (listing goes on)

Target,probe-labelled cysteine peptide fold change (10 µM),probe-labelled cysteine peptide fold change (50 µM)
COPE_O14579_225_CSPTLLLLNGQAACHMAQGR (UniProt O14579),0.0563,0.158
COMP_P49747_351_WGDACDNCR (UniProt P49747),-0.495,0.0664
COPB2_P35606_40_SVDLHPTEPWMLASLYNGSVCVWNHETQTLVK (UniProt P35606),0.211,0.122
COPB2_P35606_276_VWCVASLR (UniProt P35606),0.234,0.379
CNOT2_Q9NZN8_175_SSPSIICMPK (UniProt Q9NZN8),-0.236,-0.343
COMT_P21964_223_KGTVLLADNVICPGAPDFLAHVR (UniProt P21964),-0.0533,-0.112
CNPY2_Q9Y2B0_28+31_SQDLHCGACR (UniProt Q9Y2B0),-0.301,-0.121
CNP_P09543_49_DKPELQFPFLQDEDTVATLLECK (UniProt P09543),0.0225,0.0901
CMTM3_Q96MX0_38_AFLCSLK (UniProt Q96MX0),-0.91,-3.05
CNN2_Q99439_215_CASQVGMTAPGTR (UniProt Q99439),-0.0958,-0.449
CNBP_P62633_140_CGETGHVAINCSK (UniProt P62633),0.154,0.341
COG3_Q96JB2_363_DHCALVR (UniProt Q96JB2),-0.12,-0.0937
CNPY3_Q9BT09_104_LIEVTETICKR (UniProt Q9BT09),0.0226,0.0235
COA7_Q96BR5_100_CFLMACEK (UniProt Q96BR5),0.146,0.134
CMTR1_Q8N1G2_794_DSTFDLPADSIAPFHICYYGR (UniProt Q8N1G2),0.205,0.653
CNBP_P62633_97_EREQCCYNCGKPGHLAR (UniProt P62633),-0.212,-0.744
CNOT9_Q92600_99_VCNALALLQCVASHPETR (UniProt Q92600),0.0897,-0.333
COG3_Q96JB2_349+363_ELLLGPSIACTVAELTSQNNRDHCALVR (UniProt Q96JB2),-0.652,0.0075
COPB2_P35606_221+234_TCVQTLEGHAQNVSCASFHPELPIIITGSEDGTVR (UniProt P35606),-0.0281,0.213
